The values below come from article doi:10.1101/2023.10.04.560926.

Protein sequences, listed by entry. Tags and fused reporters are not part of them.
UniProt P29597: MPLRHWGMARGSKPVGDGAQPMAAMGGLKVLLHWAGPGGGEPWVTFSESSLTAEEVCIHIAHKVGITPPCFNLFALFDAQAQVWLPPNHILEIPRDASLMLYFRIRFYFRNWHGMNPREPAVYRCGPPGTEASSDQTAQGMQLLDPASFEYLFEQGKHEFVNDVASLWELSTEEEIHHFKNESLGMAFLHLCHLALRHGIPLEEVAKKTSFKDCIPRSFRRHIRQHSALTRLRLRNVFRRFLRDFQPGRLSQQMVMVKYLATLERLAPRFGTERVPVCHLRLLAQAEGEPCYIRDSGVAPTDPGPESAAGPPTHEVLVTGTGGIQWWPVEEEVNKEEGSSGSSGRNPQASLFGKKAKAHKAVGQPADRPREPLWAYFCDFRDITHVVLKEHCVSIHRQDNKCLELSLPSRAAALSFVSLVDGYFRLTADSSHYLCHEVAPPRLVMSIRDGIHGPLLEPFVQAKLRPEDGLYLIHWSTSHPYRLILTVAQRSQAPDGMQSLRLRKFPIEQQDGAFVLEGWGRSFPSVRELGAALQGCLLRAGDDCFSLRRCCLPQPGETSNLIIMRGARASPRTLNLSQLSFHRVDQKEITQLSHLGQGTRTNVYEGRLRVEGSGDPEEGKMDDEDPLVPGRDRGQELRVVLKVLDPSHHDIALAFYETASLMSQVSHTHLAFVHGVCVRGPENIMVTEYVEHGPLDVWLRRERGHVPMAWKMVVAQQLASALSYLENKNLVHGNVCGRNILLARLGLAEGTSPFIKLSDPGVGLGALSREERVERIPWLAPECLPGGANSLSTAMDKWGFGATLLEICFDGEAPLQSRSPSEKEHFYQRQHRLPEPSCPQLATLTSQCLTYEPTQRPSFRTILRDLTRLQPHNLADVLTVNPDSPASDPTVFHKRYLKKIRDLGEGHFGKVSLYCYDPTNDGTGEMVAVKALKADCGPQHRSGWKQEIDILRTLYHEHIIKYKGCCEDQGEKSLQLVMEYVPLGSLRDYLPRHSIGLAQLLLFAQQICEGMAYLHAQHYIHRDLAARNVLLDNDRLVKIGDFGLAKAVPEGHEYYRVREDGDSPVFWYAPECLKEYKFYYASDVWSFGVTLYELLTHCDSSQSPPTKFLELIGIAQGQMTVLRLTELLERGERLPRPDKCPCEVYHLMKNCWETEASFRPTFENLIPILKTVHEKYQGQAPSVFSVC

These are yes or no findings as the source states them, for the method shown. Binding seen in cells or lysates may run through a third protein. A yes stands for co-enrichment or nearness to the bait. Other partners may have been found. For part of these data: Where a sequence is shown, tags or fusion partners need not be part of it.

What all share (experiment): proximity labelling
The target in assay [1] is TurboID-V5-STAT2 (human), P52630. Conditions: remark: other sources report otherwise.
The target in assay [2] is T1, TurboID-V5-IRF9 (human), Q00978.
T1 chain: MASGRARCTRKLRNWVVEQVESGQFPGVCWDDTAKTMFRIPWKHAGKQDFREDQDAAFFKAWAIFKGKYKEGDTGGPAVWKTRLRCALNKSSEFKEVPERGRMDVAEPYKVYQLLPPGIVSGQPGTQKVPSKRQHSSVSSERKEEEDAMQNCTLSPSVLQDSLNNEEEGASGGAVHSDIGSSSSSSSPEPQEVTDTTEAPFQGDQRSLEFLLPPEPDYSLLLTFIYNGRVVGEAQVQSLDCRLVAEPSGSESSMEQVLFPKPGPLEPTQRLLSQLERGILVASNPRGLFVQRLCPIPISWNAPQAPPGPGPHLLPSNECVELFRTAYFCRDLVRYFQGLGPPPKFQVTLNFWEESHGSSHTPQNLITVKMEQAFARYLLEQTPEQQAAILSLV
The following applies: remark: other sources report otherwise.

The target in another assay is TurboID-V5-TYK2 (human) (UniProt P29597).

B1: TurboID-V5-IRF9, Q00978 1-393 (protein)
chain: T1 chain
B1: the binding result in assay [1] was “binds”.

B2: TurboID-V5-STAT1, P42224-1 1-750 (protein)
chain: MSQWYELQQLDSKFLEQVHQLYDDSFPMEIRQYLAQWLEKQDWEHAANDVSFATIRFHDLLSQLDDQYSRFSLENNFLLQHNIRKSKRNLQDNFQEDPIQMSMIIYSCLKEERKILENAQRFNQAQSGNIQSTVMLDKQKELDSKVRNVKDKVMCIEHEIKSLEDLQDEYDFKCKTLQNREHETNGVAKSDQKQEQLLLKKMYLMLDNKRKEVVHKIIELLNVTELTQNALINDELVEWKRRQQSACIGGPPNACLDQLQNWFTIVAESLQQVRQQLKKLEELEQKYTYEHDPITKNKQVLWDRTFSLFQQLIQSSFVVERQPCMPTHPQRPLVLKTGVQFTVKLRLLVKLQELNYNLKVKVLFDKDVNERNTVKGFRKFNILGTHTKVMNMEESTNGSLAAEFRHLQLKEQKNAGTRTNEGPLIVTEELHSLSFETQLCQPGLVIDLETTSLPVVVISNVSQLPSGWASILWYNMLVAEPRNLSFFLTPPCARWAQLSEVLSWQFSSVTKRGLNVDQLNMLGEKLLGPNASPDGLIPWTRFCKENINDKNFPFWLWIESILELIKKHLLPLWNDGCIMGFISKERERALLKDQQPGTFLLRFSESSREGAITFTWVERSQNGGEPDFHAVEPYTKKELSAVTFPDIIRNYKVMAAENIPENPLKYLYPNIDKDHAFGKYYSRPKEAPEPMELDGPKGTGYIKTELISVSEVHPSRLQTTDNLLPMSPEEFDEVSRIVGSVEFDSMMNTV
As for B2, in assay [2], the binding entry is listed as “binds”.

B3: PJA2 (endogenous, MRC-5/hTERT) (enzyme, UniProt O43164 1-708)
chain: MSQYTEKEPAAMDQESGKAVWPKPAGGYQTITGRRYGRRHAYVSFKPCMTRHERSLGRAGDDYEVLELDDVPKENSSGSSPLDQVDSSLPSEPIFEKSETEIPTCGSALNQTTESSQSFVAVHHSEEGRDTLGSSTNLHNHSEGEYIPGACSASSVQNGIALVHTDSYDPDGKHGEDNDHLQLSAEVVEGSRYQESLGNTVFELENREAEAYTGLSPPVPSFNCEVRDEFEELDSVPLVKSSAGDTEFVHQNSQEIQRSSQDEMVSTKQQNNTSQERQTEHSPEDAACGPGHICSEQNTNDREKNHGSSPEQVVRPKVRKLISSSQVDQETGFNRHEAKQRSVQRWREALEVEESGSDDLLIKCEEYDGEHDCMFLDPPYSRVITQRETENNQMTSESGATAGRQEVDNTFWNGCGDYYQLYDKDEDSSECSDGEWSASLPHRFSGTEKDQSSSDESWETLPGKDENEPELQSDSSGPEEENQELSLQEGEQTSLEEGEIPWLQYNEVNESSSDEGNEPANEFAQPAFMLDGNNNLEDDSSVSEDLDVDWSLFDGFADGLGVAEAISYVDPQFLTYMALEERLAQAMETALAHLESLAVDVEVANPPASKESIDGLPETLVLEDHTAIGQEQCCPICCSEYIKDDIATELPCHHFFHKPCVSIWLQKSGTCPVCRRHFPPAVIEASAAPSSEPDPDAPPSNDSIAEAP
On to B3, for which the binding entry with TurboID-V5-TYK2 (human) is reported as “binds”.
